# From paper doi:10.1101/2022.03.29.486232
# Sequences of proteins named here, by UniProt entry; tags and fusion partners are left off. A change or cut given only in a name is not applied to a line headed by its entry. Residues count along the entry.
# UniProt P46096: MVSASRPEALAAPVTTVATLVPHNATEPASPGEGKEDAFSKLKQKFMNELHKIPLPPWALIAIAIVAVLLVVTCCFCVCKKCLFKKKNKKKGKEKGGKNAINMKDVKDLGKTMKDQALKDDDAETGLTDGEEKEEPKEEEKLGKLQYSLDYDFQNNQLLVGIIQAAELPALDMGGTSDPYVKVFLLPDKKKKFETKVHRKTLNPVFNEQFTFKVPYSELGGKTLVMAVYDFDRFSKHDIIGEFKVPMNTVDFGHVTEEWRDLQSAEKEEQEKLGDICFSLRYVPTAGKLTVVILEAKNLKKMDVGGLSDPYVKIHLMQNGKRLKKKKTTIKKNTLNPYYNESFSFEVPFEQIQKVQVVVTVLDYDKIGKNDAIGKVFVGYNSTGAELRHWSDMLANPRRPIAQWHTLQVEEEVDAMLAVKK
# UniProt P06837: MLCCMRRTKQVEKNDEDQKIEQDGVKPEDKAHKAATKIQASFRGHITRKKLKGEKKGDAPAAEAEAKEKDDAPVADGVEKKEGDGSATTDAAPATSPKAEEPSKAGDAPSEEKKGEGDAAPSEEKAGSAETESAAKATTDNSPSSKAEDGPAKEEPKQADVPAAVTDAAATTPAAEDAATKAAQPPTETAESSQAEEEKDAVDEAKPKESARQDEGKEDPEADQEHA
# UniProt Q9R0K7: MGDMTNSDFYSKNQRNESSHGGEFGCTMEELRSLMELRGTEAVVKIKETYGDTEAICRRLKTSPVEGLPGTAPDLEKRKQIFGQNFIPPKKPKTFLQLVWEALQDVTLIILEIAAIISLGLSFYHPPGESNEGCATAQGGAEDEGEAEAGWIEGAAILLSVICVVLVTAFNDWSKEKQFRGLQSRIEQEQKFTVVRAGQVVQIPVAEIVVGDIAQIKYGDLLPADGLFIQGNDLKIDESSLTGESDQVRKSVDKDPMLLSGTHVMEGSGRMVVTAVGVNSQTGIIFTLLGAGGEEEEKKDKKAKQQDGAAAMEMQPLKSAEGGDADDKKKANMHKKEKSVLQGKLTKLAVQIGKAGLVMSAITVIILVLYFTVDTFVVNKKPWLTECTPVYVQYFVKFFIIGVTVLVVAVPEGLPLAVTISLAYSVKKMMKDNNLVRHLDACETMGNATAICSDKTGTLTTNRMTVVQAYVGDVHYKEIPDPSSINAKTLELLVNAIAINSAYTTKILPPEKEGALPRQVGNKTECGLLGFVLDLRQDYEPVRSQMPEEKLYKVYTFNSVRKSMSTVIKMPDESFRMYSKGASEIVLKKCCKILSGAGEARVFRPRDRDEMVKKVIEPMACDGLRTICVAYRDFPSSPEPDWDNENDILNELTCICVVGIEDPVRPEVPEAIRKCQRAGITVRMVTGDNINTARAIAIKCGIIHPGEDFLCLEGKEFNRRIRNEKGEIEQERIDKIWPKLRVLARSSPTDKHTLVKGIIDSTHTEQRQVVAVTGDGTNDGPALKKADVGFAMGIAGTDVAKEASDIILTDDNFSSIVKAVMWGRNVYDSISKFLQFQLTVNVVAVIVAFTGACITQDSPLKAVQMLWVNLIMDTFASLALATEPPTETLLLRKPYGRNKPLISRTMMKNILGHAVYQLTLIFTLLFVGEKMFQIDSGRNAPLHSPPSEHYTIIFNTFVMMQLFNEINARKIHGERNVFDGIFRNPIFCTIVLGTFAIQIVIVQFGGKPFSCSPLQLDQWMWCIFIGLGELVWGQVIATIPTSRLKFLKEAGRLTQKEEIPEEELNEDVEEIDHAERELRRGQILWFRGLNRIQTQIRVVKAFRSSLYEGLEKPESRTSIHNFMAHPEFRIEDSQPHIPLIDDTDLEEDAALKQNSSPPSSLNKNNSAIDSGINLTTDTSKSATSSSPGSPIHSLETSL
# UniProt P56480, residues 47-529: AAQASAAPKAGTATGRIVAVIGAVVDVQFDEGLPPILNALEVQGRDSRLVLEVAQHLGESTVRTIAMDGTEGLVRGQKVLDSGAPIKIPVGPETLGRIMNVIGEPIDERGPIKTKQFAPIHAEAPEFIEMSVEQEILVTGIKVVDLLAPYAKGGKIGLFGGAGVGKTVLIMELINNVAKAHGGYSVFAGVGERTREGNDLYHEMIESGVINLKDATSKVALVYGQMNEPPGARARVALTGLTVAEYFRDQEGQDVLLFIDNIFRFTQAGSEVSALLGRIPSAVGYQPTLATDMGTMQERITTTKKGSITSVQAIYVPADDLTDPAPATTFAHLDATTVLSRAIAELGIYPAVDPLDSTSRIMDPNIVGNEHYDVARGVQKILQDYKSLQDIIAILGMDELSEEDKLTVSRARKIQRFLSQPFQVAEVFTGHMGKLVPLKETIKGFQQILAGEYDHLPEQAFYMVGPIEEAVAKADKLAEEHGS
# UniProt Q9JIS5: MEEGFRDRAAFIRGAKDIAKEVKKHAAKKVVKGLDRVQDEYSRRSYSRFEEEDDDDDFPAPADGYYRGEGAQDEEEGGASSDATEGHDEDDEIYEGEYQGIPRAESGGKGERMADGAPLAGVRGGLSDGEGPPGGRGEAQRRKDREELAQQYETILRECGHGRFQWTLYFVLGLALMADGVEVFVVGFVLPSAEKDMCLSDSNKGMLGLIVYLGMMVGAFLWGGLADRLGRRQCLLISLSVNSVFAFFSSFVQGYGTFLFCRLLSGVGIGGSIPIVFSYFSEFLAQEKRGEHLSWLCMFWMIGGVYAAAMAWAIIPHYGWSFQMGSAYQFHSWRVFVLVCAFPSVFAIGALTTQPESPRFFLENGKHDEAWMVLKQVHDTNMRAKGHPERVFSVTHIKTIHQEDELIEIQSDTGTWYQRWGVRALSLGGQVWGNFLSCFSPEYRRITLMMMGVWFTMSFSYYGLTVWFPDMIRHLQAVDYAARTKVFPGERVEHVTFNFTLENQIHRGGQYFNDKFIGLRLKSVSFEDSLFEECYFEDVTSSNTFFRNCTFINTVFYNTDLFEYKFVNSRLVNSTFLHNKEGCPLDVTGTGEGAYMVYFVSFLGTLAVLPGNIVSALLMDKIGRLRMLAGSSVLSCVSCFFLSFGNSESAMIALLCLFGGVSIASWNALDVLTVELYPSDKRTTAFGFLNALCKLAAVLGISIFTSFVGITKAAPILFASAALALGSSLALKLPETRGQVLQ
# UniProt P60761: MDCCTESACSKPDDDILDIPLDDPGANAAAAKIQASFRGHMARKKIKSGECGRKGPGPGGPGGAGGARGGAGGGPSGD
# UniProt Q9DC28: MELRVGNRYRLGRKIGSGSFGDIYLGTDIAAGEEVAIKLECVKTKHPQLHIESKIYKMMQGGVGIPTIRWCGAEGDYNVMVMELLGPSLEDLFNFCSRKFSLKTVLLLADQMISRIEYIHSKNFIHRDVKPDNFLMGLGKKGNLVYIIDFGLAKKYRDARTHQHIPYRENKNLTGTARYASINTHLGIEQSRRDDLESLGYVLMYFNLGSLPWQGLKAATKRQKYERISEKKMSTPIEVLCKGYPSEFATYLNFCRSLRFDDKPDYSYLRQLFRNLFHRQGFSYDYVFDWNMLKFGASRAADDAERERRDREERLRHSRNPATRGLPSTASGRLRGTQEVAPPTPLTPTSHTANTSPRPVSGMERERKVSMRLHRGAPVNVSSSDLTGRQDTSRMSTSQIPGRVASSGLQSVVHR
# UniProt Q7TQD2: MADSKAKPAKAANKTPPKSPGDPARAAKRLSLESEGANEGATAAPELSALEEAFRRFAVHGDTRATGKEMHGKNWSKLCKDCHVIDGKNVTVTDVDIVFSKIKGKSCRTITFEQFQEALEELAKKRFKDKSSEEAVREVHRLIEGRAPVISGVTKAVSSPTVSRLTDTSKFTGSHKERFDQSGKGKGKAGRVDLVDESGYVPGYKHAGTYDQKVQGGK
# UniProt P47708: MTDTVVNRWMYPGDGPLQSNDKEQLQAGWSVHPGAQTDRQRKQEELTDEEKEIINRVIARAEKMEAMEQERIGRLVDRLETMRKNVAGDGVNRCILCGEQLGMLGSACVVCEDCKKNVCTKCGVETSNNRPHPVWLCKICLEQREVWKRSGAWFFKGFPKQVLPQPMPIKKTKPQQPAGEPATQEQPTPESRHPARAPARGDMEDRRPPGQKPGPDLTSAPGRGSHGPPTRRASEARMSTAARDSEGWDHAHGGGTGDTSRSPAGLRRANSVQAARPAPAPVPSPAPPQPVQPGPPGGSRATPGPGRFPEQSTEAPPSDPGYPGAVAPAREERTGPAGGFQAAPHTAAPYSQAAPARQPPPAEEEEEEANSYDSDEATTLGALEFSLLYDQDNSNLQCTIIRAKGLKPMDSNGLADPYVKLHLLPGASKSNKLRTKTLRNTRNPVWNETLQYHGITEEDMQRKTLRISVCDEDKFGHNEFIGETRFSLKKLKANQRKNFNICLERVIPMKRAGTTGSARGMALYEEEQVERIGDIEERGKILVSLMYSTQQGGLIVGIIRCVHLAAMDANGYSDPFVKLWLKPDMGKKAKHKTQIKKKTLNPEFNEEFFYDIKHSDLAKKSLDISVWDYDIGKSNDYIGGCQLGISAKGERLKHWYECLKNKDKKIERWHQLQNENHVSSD
# UniProt P16388: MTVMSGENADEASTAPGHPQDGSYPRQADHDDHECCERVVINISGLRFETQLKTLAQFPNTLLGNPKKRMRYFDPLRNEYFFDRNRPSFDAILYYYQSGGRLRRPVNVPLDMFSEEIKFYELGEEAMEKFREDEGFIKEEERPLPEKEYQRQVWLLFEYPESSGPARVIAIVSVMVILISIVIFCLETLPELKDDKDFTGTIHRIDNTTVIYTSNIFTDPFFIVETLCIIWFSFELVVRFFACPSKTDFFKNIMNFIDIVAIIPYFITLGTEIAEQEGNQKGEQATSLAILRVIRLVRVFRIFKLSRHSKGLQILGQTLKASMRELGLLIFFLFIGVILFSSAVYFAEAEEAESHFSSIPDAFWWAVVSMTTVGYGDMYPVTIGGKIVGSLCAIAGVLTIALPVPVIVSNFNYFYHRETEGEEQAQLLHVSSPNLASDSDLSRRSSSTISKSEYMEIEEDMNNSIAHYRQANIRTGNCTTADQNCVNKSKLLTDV
# UniProt P07356: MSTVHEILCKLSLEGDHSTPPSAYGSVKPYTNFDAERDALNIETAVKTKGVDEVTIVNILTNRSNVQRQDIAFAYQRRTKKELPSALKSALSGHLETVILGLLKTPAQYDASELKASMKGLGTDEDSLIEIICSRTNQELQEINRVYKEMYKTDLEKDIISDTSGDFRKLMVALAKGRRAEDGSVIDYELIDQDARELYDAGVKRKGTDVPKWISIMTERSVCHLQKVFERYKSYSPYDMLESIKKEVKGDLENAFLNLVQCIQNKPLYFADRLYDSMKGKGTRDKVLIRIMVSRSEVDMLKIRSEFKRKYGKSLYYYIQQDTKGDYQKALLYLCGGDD
# UniProt P63141: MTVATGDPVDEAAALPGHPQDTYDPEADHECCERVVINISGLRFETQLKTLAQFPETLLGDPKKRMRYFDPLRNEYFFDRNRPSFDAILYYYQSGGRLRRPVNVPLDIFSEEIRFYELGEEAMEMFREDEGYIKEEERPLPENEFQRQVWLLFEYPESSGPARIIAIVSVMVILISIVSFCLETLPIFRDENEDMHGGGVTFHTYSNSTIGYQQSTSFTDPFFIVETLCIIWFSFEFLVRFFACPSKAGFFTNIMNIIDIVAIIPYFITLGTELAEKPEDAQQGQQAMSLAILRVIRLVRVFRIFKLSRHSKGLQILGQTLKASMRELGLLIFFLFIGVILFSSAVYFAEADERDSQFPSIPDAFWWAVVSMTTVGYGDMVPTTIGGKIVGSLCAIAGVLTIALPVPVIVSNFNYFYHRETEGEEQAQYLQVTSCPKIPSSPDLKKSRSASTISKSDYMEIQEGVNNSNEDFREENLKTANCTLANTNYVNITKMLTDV
# No constants are given. Whether binding was seen depends on the method and setting. In cells and extracts the contact can be indirect. Here binding means that the protein was enriched with, or labelled near, the bait; the list need not be complete.
# T1: leucine-rich glioma-inactivated 1 (LGI1), native, from mouse brain (mouse (endogenous in mouse brain)) (UniProt Q9JIA1)
# T1 sequence: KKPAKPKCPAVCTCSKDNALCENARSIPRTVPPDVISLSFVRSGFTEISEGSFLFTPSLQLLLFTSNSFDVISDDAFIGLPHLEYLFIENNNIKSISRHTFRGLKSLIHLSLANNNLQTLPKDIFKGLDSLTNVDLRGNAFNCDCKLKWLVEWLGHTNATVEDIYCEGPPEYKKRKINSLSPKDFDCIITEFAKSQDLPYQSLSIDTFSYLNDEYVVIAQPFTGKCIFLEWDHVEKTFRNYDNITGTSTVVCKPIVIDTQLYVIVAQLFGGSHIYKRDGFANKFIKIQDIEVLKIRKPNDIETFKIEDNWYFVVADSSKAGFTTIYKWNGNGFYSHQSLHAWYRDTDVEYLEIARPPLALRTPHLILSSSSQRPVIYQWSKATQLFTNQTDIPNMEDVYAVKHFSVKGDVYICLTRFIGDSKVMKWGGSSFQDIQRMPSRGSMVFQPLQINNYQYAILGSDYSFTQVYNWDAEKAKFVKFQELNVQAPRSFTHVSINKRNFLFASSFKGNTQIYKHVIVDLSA
# Target: T1, leucine-rich glioma-inactivated 1 (LGI1), native, from mouse brain (mouse (endogenous in mouse brain))
# Assay: affinity purification with mass spectrometry
row,Molecule,binding
1,synaptotagmin1 (from UniProt P46096 1-421),binds
2,neuromodulin (GAP43) (from UniProt P06837 1-227),binds
3,plasma membrane calcium-transporting ATPase2 (AT2B2) (from UniProt Q9R0K7 1-1198),binds weakly
4,PKCγ (KPCG) (from UniProt P63318 1-697) (enzyme),binds
5,ATP synthase β subunit of the mitochondrial ATP synthase (from UniProt P56480 47-529),binds
6,synaptic vesicle glycoprotein 2A (SV2A) (from UniProt Q9JIS5 1-742),binds
7,neurogranin (from UniProt P60761 1-78),binds
8,casein kinase 1δ (from UniProt Q9DC28 1-415) (enzyme),binds
9,tubulin polymerization-promoting protein (TPPP) (from UniProt Q7TQD2 1-218),binds
10,rabphilin-3A (from UniProt P47708 1-681),binds
11,casein kinase 1ε (from UniProt Q9JMK2 1-416) (enzyme),binds
12,Kv1.4 subunit (from UniProt Q61423 1-654),binds
13,Kv1.1 subunit (from UniProt P16388 1-495),binds
14,excitatory amino acid transporter EAA2 (GLT-1) (from UniProt P43006 1-572),binds
15,annexin 2 (ANXA2) (from UniProt P07356 1-339),binds
16,peptidyl-prolyl cis-trans isomerase B (PPIB) (from UniProt P24369 34-216) (enzyme),binds
17,Kv1.2 subunit (from UniProt P63141 1-499),binds
18,syntaxin1 (mouse (endogenous in mouse brain)),binds
19,mitochondrial creatine kinase KCRU (from UniProt P30275 40-418) (enzyme),binds
20,SAP97 (from UniProt Q811D0 1-905),binds
21,Kv1.6 subunit (from UniProt Q61923 1-529),binds
22,"ADAM11 (protein, UniProt Q9R1V4 230-773) QVRRGHPTVHSETKYVELIVINDHQLFEQMRQSVVLTSNFAKSVVNLADVIYKEQLNTRIVLVAMETWADGDKIQVQDDLLETLARLMVYRREGLPEPSDATHLFSGRTFQSTSSGAAYVGGICSLSRGGGVNEYGNMGAMAVTLAQTLGQNLGMMWNKHRSSAGDCKCPDIWLGCIMEDTGFYLPRKFSRCSIDEYNQFLQEGGGSCLFNKPLKLLDPPECGNGFVEAGEECDCGSVQECSRAGGNCCKKCTLTHDAMCSDGLCCRRCKYEPRGVSCREAVNECDIAETCTGDSSQCPPNLHKLDGYYCDHEQGRCYGGRCKTRDRQCQALWGHAAADRFCYEKLNVEGTERGNCGRKGSGWVQCSKQDVLCGFLLCVNISGAPRLGDLGGDISSVTFYHQGKELDCRGGHVQLADGSDLSYVEDGTACGPNMLCLDHRCLPASAFNFSTCPGSGERRICSHHGVCSNEGKCICQPDWTGKDCSIHNPLPTSPPTGETERYKGPSGTNIIIGSIAGAVLVAAIVLGGTGWGFKNIRRGRSGGA",binds
23,"Lin7A (Veli1) (protein, UniProt Q8JZS0 1-233) MLKPSVTSAPTADMATLTVVQPLTLDRDVARAIELLEKLQESGEVPVHKLQSLKKVLQSEFCTAIREVYQYMHETITVNGCPEFRARATAKATVAAFAASEGHSHPRVVELPKTDEGLGFNVMGGKEQNSPIYISRIIPGGVAERHGGLKRGDQLLSVNGVSVEGEHHEKAVELLKAAKDSVKLVVRYTPKVLEEMEARFEKLRTARRRQQQQLLIQQQQQQQQQQPQQNHMS",binds
24,"Lin7C (Veli3) (protein, UniProt O88952 1-197) MAALGEPVRLERDICRAIELLEKLQRSGEVPPQKLQALQRVLQSEFCNAVREVYEHVYETVDISSSPEVRANATAKATVAAFAASEGHSHPRVVELPKTEEGLGFNIMGGKEQNSPIYISRIIPGGIADRHGGLKRGDQLLSVNGVSVEGEHHEKAVELLKAAQGKVKLVVRYTPKVLEEMESRFEKMRSAKRRQQT",binds
25,"LANC2 (LanC-like protein 2) (protein, UniProt Q9JJK2 1-450) MGETMSKRLKFHLGEAEMEERSFPNPFPDYEAAASAAGLAAGSAEETGRVCPLPTTEDPGLPFHPNGKIVPNFIKRIQTKIKDLLQQMEEGLKTADPHDCSAYTGWTGIALLYLQLYRVTGDQTYLLRSLDYVKRTLRNLSGRRVTFLCGDAGPLAVGAVIYHKLKSECESQECITKLLQMHRTIVCQESELPDELLYGRAGYLYALLYLNTEIGPGTVGETAIKEVVSAIIESGKSLSREERKSERCPLLYQWHRKQYVGAAHGMAGIYYMLMQPEAKVDQETLTEMVKPSIDYVRHKKFRSGNYPSSLSNETDRLVHWCHGAPGVIHVLLQAYQVFKEEKYLKEAMECSDVIWQRGLLRKGYGICHGTSGNGYSFLSLYRLTQDKKYLYRACKFAEWCLDYGAHGCRIPDRPYSLFEGMAGAVHFLSDILVPETARFPAFELGFLQKD",binds
26,"SAP102 (protein, UniProt P70175 1-849) MHKHQHCCKCPECYEVTRLAALRRLEPPGYGDWQVPDPYGPSGGNGASSGYGGYSSQTLPSQAGATPTPRTKAKLIPTGRDVGPVPPKPVPGKSTPKLNGSGPGWWPECTCTNRDWYEQASPAPLLVNPEALEPSLSVNGSDGMFKYEEIVLERGNSGLGFSIAGGIDNPHVPDDPGIFITKIIPGGAAAMDGRLGVNDCVLRVNEVDVSEVVHSRAVEALKEAGPVVRLVVRRRQPPPETIMEVNLLKGPKGLGFSIAGGIGNQHIPGDNSIYITKIIEGGAAQKDGRLQIGDRLLAVNNTNLQDVRHEEAVASLKNTSDMVYLKVAKPGSIHLNDMYAPPDYASTFTALADNHISHNSSLGYLGAVESKVTYPAPPQVPPTRYSPIPRHMLAEEDFTREPRKIILHKGSTGLGFNIVGGEDGEGIFVSFILAGGPADLSGELRRGDRILSVNGVNLRNATHEQAAAALKRAGQSVTIVAQYRPEEYSRFESKIHDLREQMMNSSMSSGSGSLRTSEKRSLYVRALFDYDRTRDSCLPSQGLSFSYGDILHVINASDDEWWQARLVTPHGESEQIGVIPSKKRVEKKERARLKTVKFHARTGMIESNRDFPGLSDDYYGAKNLKGVTSNTSDSESSSKGQEDAILSYEPVTRQEIHYARPVIILGPMKDRVNDDLISEFPHKFGSCVPHTTRPRRDNEVDGQDYHFVVSREQMEKDIQDNKFIEAGQFNDNLYGTSIQSVRAVAERGKHCILDVSGNAIKRLQQAQLYPIAIFIKPKSIEALMEMNRRQTYEQANKIFDKAMKLEQEFGEYFTAIVQGDSLEEIYNKIKQIIEDQSGHYIWVPSPEKL",binds
27,"contactin 1 (CNTN1) (protein, UniProt P12960 21-1001) DFTWHRRYGHGVSEEDKGFGPIFEEQPINTIYPEESLEGKVSLNCRARASPFPVYKWRMNNGDVDLTNDRYSMVGGNLVINNPDKQKDAGVYYCLASNNYGMVRSTEATLSFGYLDPFPPEERPEVKVKEGKGMVLLCDPPYHFPDDLSYRWLLNEFPVFITMDKRRFVSQTNGNLYIANVESSDRGNYSCFVSSPSITKSVFSKFIPLIPIPERTTKPYPADIVVQFKDIYTMMGQNVTLECFALGNPVPDIRWRKVLEPMPSTAEISTSGAVLKIFNIQLEDEGLYECEAENIRGKDKHQARIYVQAFPEWVEHINDTEVDIGSDLYWPCIATGKPIPTIRWLKNGYSYHKGELRLYDVTFENAGMYQCIAENAYGSIYANAELKILALAPTFEMNPMKKKILAAKGGRVIIECKPKAAPKPKFSWSKGTEWLVNSSRILIWEDGSLEINNITRNDGGIYTCFAENNRGKANSTGTLVITNPTRIILAPINADITVGENATMQCAASFDPALDLTFVWSFNGYVIDFNKEITHIHYQRNFMLDANGELLIRNAQLKHAGRYTCTAQTIVDNSSASADLVVRGPPGPPGGLRIEDIRATSVALTWSRGSDNHSPISKYTIQTKTILSDDWKDAKTDPPIIEGNMESAKAVDLIPWMEYEFRVVATNTLGTGEPSIPSNRIKTDGAAPNVAPSDVGGGGGTNRELTITWAPLSREYHYGNNFGYIVAFKPFDGEEWKKVTVTNPDTGRYVHKDETMTPSTAFQVKVKAFNNKGDGPYSLVAVINSAQDAPSEAPTEVGVKVLSSSEISVHWKHVLEKIVESYQIRYWAGHDKEAAAHRVQVTSQEYSARLENLLPDTQYFIEVGACNSAGCGPSSDVIETFTRKAPPSQPPRIISSVRSGSRYIITWDHVVALSNESTVTGYKILYRPDGQHDGKLFSTHKHSIEVPIPRDGEYVVEVRAHSDGGDGVVSQVKISGVSTLS",binds
